# Laboratory results from PubChem BioAssay AID1471 (National Center for Advancing Translational Sciences (NCATS), 2008).
# Among all 230,000 compounds or so, about 310 (0.13%) were called active. Inconclusive means that the source gave no clear call. Such entries were picked first, then a sample of the others. Calls follow the shape of the dose curve; as a rule, active = well fitted activation curve with a large enough effect; inconclusive = small, poorly fitted or top-dose-only effect; inactive = no such curve, though single readings can be large or run the other way. A potency beside an inconclusive call is a rough fit, not a confirmed value.
# Assay: qHTS Multiplex Assay to Identify Dual Action Probes in a Cell Model of Huntington: Cytoprotection (ATP); also: nearly all actives have a fitted effect of over 45% in size;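 as to cytoprotection (ATP increase): toxic huntingtin expression switched on by the ecdysone agonist tebufenozide; % of control where 0% means no effect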
# Conditions: PC12 HTT-Q103 induced, ATP luminescence, 40 h; cytoprotection (ATP increase): at 56.4 µM (top of the series) unless noted
# In short: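 Readout: ATPlite luminescence (ATP level). Model: stable PC12, inducible Htt exon1 Q103-GFP. Inducer: tebufenozide, 100 nM final. Compounds: dose series. No G418 in medium.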
# Potency is read from the fitted curve at half-maximal effect.
SMILES,Potency,cytoprotection (ATP increase)
COc1ccc(/C=C(\CC(=O)O)c2nc3ccccc3s2)cc1O,"inconclusive: 2510 nM [activator, single point]",
NS(=O)(=O)c1ccc(CCNC(=O)CSc2nc3ccsc3c(=O)n2CCCCCC(=O)O)cc1,"inconclusive: 7.1 nM [activator, full curve, poor fit]",
COc1ccc2[nH]cc(CCNc3ncncc3-c3ccc4c(c3)OCO4)c2c1,"inconclusive: 501 nM [activator, full curve]",
Cc1nc(N=Nc2ccc(S(=O)(=O)O)cc2S(=O)(=O)O)c(COP(=O)(O)O)c(C=O)c1O,"inconclusive: 112 nM [activator, full curve, poor fit]",
N#C/C(=C\c1cc(Cl)ccc1O)C(=O)NC1CCCCC1,"inconclusive: 6310 nM [activator, full curve, poor fit]",
CN(C)/N=C/c1cc(Cl)cc([N+](=O)[O-])c1O,"inconclusive: 5620 nM [activator, single point]",
O=c1c(-c2ccc(F)cc2)nc2cnc(N3CCOCC3)nc2n1Cc1ccc(F)cc1,"inconclusive: 31600 nM [activator, single point]",
Cc1nc2ccc(NC(=O)CCS(=O)(=O)c3ccc(Cl)cc3)cc2s1,"inconclusive: 5620 nM [activator, single point]",
O=C(CCCOc1ccccc1)Nc1nc2ccccc2[nH]1,"inconclusive: 794 nM [activator, single point]",
COC(=O)C(C(=O)Nc1ccccc1C)C1CCCC1 (stereo not given),,inactive: -22.5%
C/C(Cl)=C\Cn1c(Nc2ccc(C)cc2)nc2c1c(=O)n(C)c(=O)n2C,"inconclusive: 3550 nM [activator, single point]",
Cc1ccccc1OCC(=O)NC(=S)Nc1ccc(Br)c(C)n1,"inconclusive: 5620 nM [activator, single point]",
CCN(CC)C(=O)COc1ccc(-c2nnc(Nc3ccc(OC)c(C(=O)NC)c3)c3ccccc23)cc1,,inactive: -16.7% [at 10 µM]
O=c1cc(-c2ccccc2Cl)oc2ccc([N+](=O)[O-])c(O)c12,"inconclusive: 11200 nM [activator, partial curve, poor fit]",
CN(C)CCNC(=O)c1cc2c(s1)-c1ccccc1OC2,,inactive: -8.8%
Nc1no[n+]([O-])c1-c1ccccc1,,inactive: 6.99%
CNCCC(Oc1ccccc1C)c1ccccc1 (stereo not given),"inconclusive: 4470 nM [activator, full curve, poor fit]",
CCC(C)c1ccc(NC(=S)NCc2ccccn2)cc1 (stereo not given),"inconclusive: 1260 nM [activator, single point]",
Cc1cc(C)c2c(C)[nH]nc2n1,"inconclusive: 891 nM [activator, single point]",
O=C(CN1CCOCC1)NN=C1CCCCCCCCCCC1,,inactive: 29.8% [at 10 µM]
COc1ccc(C(=O)COC(=O)CCC(=O)c2cccs2)cc1,"inconclusive: 1000 nM [activator, full curve, poor fit]",
Cc1c(CC(C)(C)C(=O)O)n(Cc2ccc(Cl)cc2)c2ccc(F)cc12,inactive,
Cc1cc(Cl)ccc1NNC(N)=S,,inactive: 12.6% [at 10 µM]

SMILES,Potency,cytoprotection (ATP increase)
COc1ccc(-c2noc(CN(C)S(=O)(=O)c3ccc(Cl)cc3)n2)cc1OC,,inactive: -7.91%
COC(=O)[C@H]1[C@@H]2C[C@H]3c4[nH]c5ccccc5c4CCN3C[C@@H]2CC[C@@H]1O,,inactive: 6.69%
Cc1c(NC(=O)CN2C(=O)NC(C)(c3ccc4c(c3)OCCO4)C2=O)c(=O)n(-c2ccccc2)n1C (stereo not given),,inactive: 15.4% [at 10 µM]
CS(=O)(=O)N1CCN=C1SCc1ccc([N+](=O)[O-])cc1,"inconclusive: 447 nM [activator, partial curve]",
CCOC(=O)C1=C(C)N=C2SC(C)C(=O)N2C1c1cccc(F)c1 (stereo not given),active: 25100 nM,
Oc1[nH]c2ccccc2c1N=Nc1nc2ccccc2s1,,inactive: -98.2%
Nc1ncncc1-c1ccc([N+](=O)[O-])cc1,"inconclusive: 891 nM [activator, full curve]",
CN1COc2ccc3ccccc3c2C1,"inconclusive: 1780 nM [activator, full curve, poor fit]",
CCOc1ccccc1NC(=O)CSC1=C(C#N)C(c2ccco2)C(C(=O)Nc2nc3ccccc3s2)=C(C)N1 (stereo not given),"inconclusive: 355 nM [activator, partial curve]",
CC(C)N(CCNC(=O)C1CCN(S(=O)(=O)N2CCOCC2)CC1)Cc1ccccc1,"inconclusive: 31600 nM [activator, single point]",
O=C(c1csc2c1CCCC2)N1CCCCC1,,inactive: 27.8%
O=C1COc2ccc(C(=O)NC3CC3)cc2N1,,inactive: -36.1%
Cc1nnc(Sc2nc3ccccc3o2)c2ccccc12,"inconclusive: 39800 nM [activator, single point]",
CC(C)(C)c1ccccc1NC(=O)c1c(O)c2cccc3c2n(c1=O)CC3,"inconclusive: 25100 nM [activator, single point]",
COC(=O)c1cc(NC(=O)Cc2ccccc2[N+](=O)[O-])ccc1Cl,"inconclusive: 1260 nM [activator, single point]",
CCOc1ccc(NC(=O)c2cc(F)c(F)cc2Cl)cc1OCC,,inactive: -34.2%
O=C(O/N=C1/CCCc2occc21)c1ccccc1,"inconclusive: 31600 nM [activator, single point]",
CC(C)(C)NC(=O)C(c1ccncc1)N(C(=O)Cn1nnc(-c2ccc(F)cc2)n1)c1ccc(F)cc1 (stereo not given),"inconclusive: 1260 nM [activator, single point]",
Cc1ccc(-n2[nH]c(C)c(/C=N/Nc3ccc([N+](=O)[O-])cc3[N+](=O)[O-])c2=O)cc1,,inactive: -0.501% [at 10 µM]
CC(=O)Cc1nsc(Nc2cccc(C)c2)n1,"inconclusive: 1000 nM [activator, single point]",
C[C@@]12CCC(=O)C=C1C=CC1C2CC[C@]2(C)C1CC[C@@]21CCC(=O)O1 (stereo not given in full),"inconclusive: 6.3 nM [activator, full curve]",
O=C(CSc1nc2ccccc2s1)Nn1cnnc1,"inconclusive: 5620 nM [activator, single point]",

# Part of the list above, with bars between the fields:
SMILES | Potency | cytoprotection (ATP increase)
CC(C)N(CCNC(=O)C1CCN(S(=O)(=O)N2CCOCC2)CC1)Cc1ccccc1 | inconclusive: 31600 nM [activator, single point] | 
O=C(c1csc2c1CCCC2)N1CCCCC1 |  | inactive: 27.8%
O=C1COc2ccc(C(=O)NC3CC3)cc2N1 |  | inactive: -36.1%
Cc1nnc(Sc2nc3ccccc3o2)c2ccccc12 | inconclusive: 39800 nM [activator, single point] | 
